{
  "sequences": {"note": "Protein sequences, listed by entry. Tags and fused reporters are not part of them. Lines headed by an entry give the natural chain unless they say otherwise; changes in a name come on top.", "UniProt P18054": "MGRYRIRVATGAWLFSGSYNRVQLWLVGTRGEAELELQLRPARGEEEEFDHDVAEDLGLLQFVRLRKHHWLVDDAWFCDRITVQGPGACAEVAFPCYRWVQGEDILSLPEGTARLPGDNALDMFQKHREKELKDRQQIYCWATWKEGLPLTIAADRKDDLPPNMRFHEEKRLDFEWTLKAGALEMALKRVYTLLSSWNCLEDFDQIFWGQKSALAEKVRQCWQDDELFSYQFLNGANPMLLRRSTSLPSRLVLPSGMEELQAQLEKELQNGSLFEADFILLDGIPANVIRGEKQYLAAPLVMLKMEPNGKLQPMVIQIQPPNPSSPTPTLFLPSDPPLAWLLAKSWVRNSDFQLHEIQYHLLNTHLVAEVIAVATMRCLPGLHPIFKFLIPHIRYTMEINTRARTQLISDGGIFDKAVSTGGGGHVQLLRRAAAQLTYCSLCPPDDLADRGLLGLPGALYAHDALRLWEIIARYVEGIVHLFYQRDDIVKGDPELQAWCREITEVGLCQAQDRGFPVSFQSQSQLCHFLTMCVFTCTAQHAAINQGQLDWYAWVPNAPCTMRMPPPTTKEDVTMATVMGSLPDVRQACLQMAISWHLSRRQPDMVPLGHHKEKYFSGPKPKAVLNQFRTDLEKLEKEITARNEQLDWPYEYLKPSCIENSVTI"},
  "source": "PubChem BioAssay AID1671190",
  "about": "(National Center for Advancing Translational Sciences (NCATS), 2021)",
  "note": "Among all 580,000 compounds or so, about 6,100 (1.1%) were called active. This list was built around the results that the source calls inconclusive (neither active nor inactive); the mix of calls is not that of the screen. Calls come from the whole dose curve; as a rule, active = well fitted inhibition curve with a large enough effect; inconclusive = small, poorly fitted or top-dose-only effect, or another doubt; inactive = no such curve, though single readings can be large or run the other way. Potencies beside an inconclusive call are fits to weak or partial responses and may not hold up. Potency is the fitted concentration of half-maximal effect.",
  "data": [
    {"target": "Polyunsaturated fatty acid lipoxygenase ALOX12 (Homo sapiens) (UniProt P18054)", "experiment": "Primary qHTS assay for inhibitors of human arachidonate 12S-lipoxygenase (ALOX12): Round 2", "conditions": "purified 12hLO, xylenol orange hydroperoxide absorbance; series mostly up to 108 µM", "outline": "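Hydroperoxide product was detected by ferrous iron/xylenol orange as the 573 to 405 nm absorbance ratio. Arachidonic acid at 40 uM (final) was turned over for 30 min at room temperature by 150 nM human 12hLO, pH 7.0 Hepes buffer, after 15 min compound preincubation.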", "values": [
      {"compound": "CS(=O)(=O)N(CC(=O)N1CCc2ccccc2C1)c1ccccc1Cl", "Potency": "inactive"},
      {"compound": "CNC(=O)CSc1nc2nc(C)cc(C)n2n1", "Potency": "inactive"},
      {"compound": "Cc1cccc(C)c1Oc1ncccc1CNC1CCN(C(C)C)CC1", "Potency": "inactive"},
      {"compound": "Cc1cccc(-c2nc(-c3ccc(S(=O)(=O)N4CCOCC4)cc3)cs2)c1", "Potency": "inconclusive: 112 µM [inhibitor, partial curve, poor fit]"},
      {"compound": "Cc1ccc(-n2nc(C(=O)O)c(C)c(C#N)c2=O)cc1Cl", "Potency": "inconclusive: 35.5 µM [inhibitor, partial curve, poor fit]"},
      {"compound": "CCOC(=S)N/C(=N\\S(C)(=O)=O)c1ccccc1", "Potency": "inconclusive: 56.2 µM [inhibitor, partial curve, poor fit]"},
      {"compound": "N#Cc1ccc(NC(=O)Cn2c(=O)c3c(ncn3Cc3ccccc3)n(Cc3ccccc3)c2=O)cc1", "Potency": "inconclusive: 0.0891 µM [inhibitor, full curve, poor fit]"},
      {"compound": "CN1CCN(c2oc(-c3cccc(Cl)c3)nc2C#N)CC1", "Potency": "inconclusive: 89.1 µM [inhibitor, single point]"},
      {"compound": "CCOC(=O)C1=C(c2ccccc2)NC(=S)NC1c1ccc(C)cc1", "note": "(stereo unspecified)", "Potency": "inconclusive: 56.2 µM [inhibitor, partial curve, poor fit]"},
      {"compound": "Cc1cccc(OCCCCn2nnc3sc4c(c3c2=O)CCC(C)C4)c1", "note": "(stereo unspecified)", "Potency": "inconclusive: 56.2 µM [inhibitor, partial curve, poor fit]"},
      {"compound": "CCn1c(=O)c2sc(N3CCCC3)nc2n(CC(=O)Nc2cc(F)ccc2C)c1=O", "Potency": "inactive"},
      {"compound": "Cc1ccc(-n2ncc3c(NCCc4ccccc4)ncnc32)cc1C", "Potency": "inconclusive: 79.4 µM [inhibitor, partial curve, poor fit]"},
      {"compound": "O=C(Nc1cccc2ccccc12)N[C@H]1CO[C@H]2[C@@H]1OC[C@@H]2n1nnnc1Oc1ccc2c(c1)OCO2", "Potency": "inconclusive: 35.5 µM [inhibitor, full curve]"},
      {"compound": "Cc1cccc(OCC(=O)NC2CC(C)(C)NC(C)(C)C2)c1", "Potency": "inconclusive: 126 µM [inhibitor, single point]"},
      {"compound": "O=S(=O)(CCNCc1ccc(Cl)c(Cl)c1)Cc1ccccc1", "Potency": "inconclusive: 7.94 µM [inhibitor, partial curve, poor fit]"},
      {"compound": "S=C(c1ccc(Cl)cc1)N1CCN(Cc2ccccc2)CC1", "Potency": "inconclusive: 35.5 µM [inhibitor, partial curve, poor fit]"},
      {"compound": "CC(=O)c1ccc(N2CCN(S(=O)(=O)c3ccc4c(c3)CC(=O)N4)CC2)cc1", "Potency": "inactive"},
      {"compound": "CCN(CC)C(=O)CSc1nc2ccccc2c(=O)n1CC", "Potency": "inconclusive: 44.7 µM [inhibitor, partial curve, poor fit]"},
      {"compound": "CN1C(=O)CO[C@H]2CN(C(=O)c3cnccn3)C[C@H]21", "Potency": "inconclusive: 35.5 µM [inhibitor, full curve]"},
      {"compound": "O=C(O)c1ccc(-c2ccc(F)cc2)cc1", "Potency": "inactive"},
      {"compound": "C[C@@H]1CN([C@@H](C)CO)C(=O)c2cc(NC(=O)C3CCCCC3)ccc2O[C@@H](C)CCCCO[C@H]1CN(C)S(=O)(=O)c1ccc(Cl)cc1", "Potency": "inconclusive: 112 µM [inhibitor, single point]"},
      {"compound": "CC(C)Cn1c(=S)[nH]c2cc(Cl)ccc21", "Potency": "inconclusive: 50.1 µM [inhibitor, partial curve, poor fit]"},
      {"compound": "CC(=O)N[C@@H](Cc1c[nH]c2ccccc12)C(=O)OCc1cc(C(F)(F)F)cc(C(F)(F)F)c1", "Potency": "inconclusive: 50.1 µM [inhibitor, partial curve, poor fit]"},
      {"compound": "COc1ccc(CN2COc3ccc4c(C)cc(=O)oc4c3C2)cc1", "Potency": "inactive"},
      {"compound": "O=C(O)C1CC(O)CN1C(=S)Nc1ccccc1", "note": "(stereo unspecified)", "Potency": "inconclusive: 50.1 µM [inhibitor, partial curve, poor fit]"},
      {"compound": "Oc1ccc(Cl)cc1C=Nc1ccc(Cl)c(C(F)(F)F)c1", "Potency": "inactive"},
      {"compound": "CCCSc1nc2c(c(=O)[nH]c(=O)n2C)n1CCOCC", "Potency": "inactive"},
      {"compound": "CCNC(=S)NNC(=O)C1CCCCC1", "Potency": "inactive"},
      {"compound": "CCOc1cccc(CNc2nn[nH]n2)c1OCc1ccccc1", "Potency": "inactive"},
      {"compound": "CCOC(=O)c1ccc(NC(=O)NCCN2CCCCC2)cc1", "Potency": "inactive"},
      {"compound": "CCC(=O)Nc1ccc(Cl)c(NC(=S)NC(=O)c2ccco2)c1", "Potency": "inconclusive: 44.7 µM [inhibitor, partial curve, poor fit]"},
      {"compound": "O=C(c1coc2ccc(O)c(CN3CCOCC3)c12)C1CC1", "Potency": "inconclusive: 31.6 µM [inhibitor, partial curve, poor fit]"},
      {"compound": "Cc1nc(-c2ccccc2)n(CC(=O)Nc2ccc(Cl)cc2)c(=O)c1CCO", "Potency": "inconclusive: 39.8 µM [inhibitor, partial curve]"},
      {"compound": "O=c1[nH]c(Cc2ccc(F)cc2)nc2scc(-c3ccc(F)cc3)c12", "Potency": "inconclusive: 44.7 µM [inhibitor, partial curve, poor fit]"},
      {"compound": "CCc1c(C(C)S(=O)(=O)c2ccc(C)cc2)[nH]c(=O)n1-c1ccc(C)cc1", "note": "(stereo unspecified)", "Potency": "inconclusive: 3.98 µM [inhibitor, full curve, poor fit]"},
      {"compound": "COC(=O)C1=C(C(=O)OC)C2(OC1c1cccc(F)c1)C(=O)c1ccccc1C2=O", "note": "(stereo unspecified)", "Potency": "inconclusive: 50.1 µM [inhibitor, partial curve, poor fit]"},
      {"compound": "N#CC1=C(SCc2ccccc2)NC(=O)C(C#N)C12CCCC2", "note": "(stereo unspecified)", "Potency": "inconclusive: 100 µM [inhibitor, single point]"},
      {"compound": "C=CCn1c(O)c(N=NC(=O)CNC(=O)/C=C/c2ccc(OC)cc2)c2ccccc21", "Potency": "inactive"},
      {"compound": "CN(C)C[C@@H]1CN(C2CCOCC2)C[C@H]1N", "Potency": "inactive"},
      {"compound": "CCc1ccccc1NC(=O)Nc1ccc2nc(NS(C)(=O)=O)sc2c1", "Potency": "inconclusive: 50.1 µM [inhibitor, partial curve, poor fit]"},
      {"compound": "Cc1ccc(C(=O)C(C)OC(=O)C2CCN(c3ccc(C(F)(F)F)cn3)CC2)cc1C", "note": "(stereo unspecified)", "Potency": "inactive"},
      {"compound": "CCCCn1c(=O)c2ccccc2n(CC(=O)N(C)c2cccc(C)c2)c1=O", "Potency": "inconclusive: 56.2 µM [inhibitor, single point]"},
      {"compound": "COc1ccc(C2(C)NC(=O)N(CC(=O)Nc3c(C)n(C)n(-c4ccccc4)c3=O)C2=O)cc1", "note": "(stereo unspecified)", "Potency": "inconclusive: 56.2 µM [inhibitor, partial curve, poor fit]"},
      {"compound": "COc1ccc(-c2nc3nc(C)cc(Nc4ccc(C(C)=O)cc4)n3n2)cc1", "Potency": "inconclusive: 17.8 µM [inhibitor, partial curve, poor fit]"},
      {"compound": "Fc1ccc(CNc2ccc(F)c(Cl)c2)cc1F", "Potency": "inconclusive: 44.7 µM [inhibitor, partial curve, poor fit]"},
      {"compound": "FC(F)(F)c1cccc(N/N=C/c2cccs2)c1", "Potency": "inconclusive: 7.08 µM [inhibitor, full curve, poor fit]"},
      {"compound": "CCCCN(C(=O)C1CC(=O)N(Cc2ccc(C)cc2)C1)c1c(N)n(CC(C)C)c(=O)[nH]c1=O", "note": "(stereo unspecified)", "Potency": "inconclusive: 56.2 µM [inhibitor, partial curve, poor fit]"},
      {"compound": "COc1ccc(C2=C(Nc3ccc(F)cc3)c3ccccc3C2=O)cc1", "Potency": "inactive"},
      {"compound": "O=C(C1CC(=O)N(c2n[nH]c3ccccc23)C1)N1CCc2c([nH]c3ccccc23)C1", "note": "(stereo unspecified)", "Potency": "inactive"},
      {"compound": "Cc1cnc(C(=O)NC(c2ccccc2)c2ccccc2)cn1", "Potency": "inconclusive: 70.8 µM [inhibitor, single point]"},
      {"compound": "CN(C(=O)c1cccc(NC(=O)Cc2cccc(NC(=O)C3CCN(C(=O)C4CCC4)CC3)c2)c1)C1CC1", "Potency": "inconclusive: 89.1 µM [inhibitor, partial curve, poor fit]"},
      {"compound": "COc1ccc2oc(=O)c(-c3nc(-c4ccc(C)cc4)no3)cc2c1", "Potency": "inactive"},
      {"compound": "O=c1oc2ccc(Cl)cc2cc1-c1csc(Nc2ccc(F)cc2)n1", "Potency": "inconclusive: 89.1 µM [inhibitor, single point]"},
      {"compound": "CCOc1ccc(-c2ccc(NS(=O)(=O)c3cc(C)c(C)cc3C)cc2)nn1", "Potency": "inconclusive: 70.8 µM [inhibitor, partial curve, poor fit]"},
      {"compound": "CCN(CC(=O)NCc1ccc(Cl)cc1)C(=O)CCC(=O)c1ccc(C)cc1", "Potency": "inconclusive: 56.2 µM [inhibitor, partial curve, poor fit]"},
      {"compound": "Oc1cccc2ccc(Nc3ccccn3)nc12", "Potency": "inconclusive: 112 µM [inhibitor, partial curve, poor fit]"},
      {"compound": "CCCCCC(C)NS(=O)(=O)Cc1ccc([N+](=O)[O-])cc1", "note": "(stereo unspecified)", "Potency": "inconclusive: 7.08 µM [inhibitor, partial curve, poor fit]"},
      {"compound": "Cc1ccc2c(c1)c1c3n2CCNC3CCC1", "note": "(stereo unspecified)", "Potency": "inconclusive: 31.6 µM [inhibitor, full curve, poor fit]"},
      {"compound": "Cc1ccccc1CN1CCc2nc(Nc3ccc4c(c3)OCCO4)ncc2C1", "Potency": "inactive"},
      {"compound": "Cc1cc(C2=NNC(=NC(C)(C)C)SC2)c(C)n1C1CC1", "Potency": "inconclusive: 39.8 µM [inhibitor, partial curve, poor fit]"},
      {"compound": "CN(CC(=O)Nc1ccccc1Cl)C(=O)CCSc1ccc(F)cc1", "Potency": "inconclusive: 28.2 µM [inhibitor, single point]"},
      {"compound": "COc1ccc(Nc2nc(Nc3ccc(F)cc3)nc3nccnc23)cc1", "Potency": "inactive"},
      {"compound": "CCN(C(=O)COc1cc(=O)n(C)c2ccccc12)c1cccc(C(F)(F)F)c1", "Potency": "inconclusive: 158 µM [inhibitor, partial curve, poor fit]"},
      {"compound": "Cc1ccc(S(=O)(=O)Nc2cc(C(=O)Nc3cc(C)cc(C)c3)ccc2Cl)cc1", "Potency": "inconclusive: 4.47 µM [inhibitor, full curve, poor fit]"},
      {"compound": "O=C(CCc1ncc(-c2ccc(F)cc2F)o1)NC1CCN(Cc2ccccc2)C1", "note": "(stereo unspecified)", "Potency": "inactive"},
      {"compound": "CCCCCn1nc(C(=O)NCc2ccccc2F)c2ccccc2c1=O", "Potency": "inactive"}
    ]}
  ]
}
